# The list shows a part of the results.
# B1: Epa21 (Candida glabrata) (protein)
# chain: MGSSHHHHHHSSGLVPRGSHMASTPNIESHPQGCSPVDTSGIKPGLKMDLYRFPITPPGTGCWSWDWLTVTPDFPRSGYWKWPKIAEVDGVVGPLHLDSGHPTCDPLTSVLPHGFNYLQSITTTNFTMVLHGYFVPKQSGKYTFEFKADDALLLNLGAGNAFSCCDYNNSQYNQGEYLAYAIWSKNNQTATLYLEKGIYYPIRVFYHNRCCGAYMDVVYYFNDSPIPNRDFSGLLFSIPDSDSCDANI
# Columns and labels:
# Assay in all cases: glycan array binding signal (z-score within array); higher = stronger binding
# Details in all cases: glycan notation: IUPAC condensed, linker removed
# [1] = biological target: Gal(a1-6)Glc
# Summary of the method: (§1)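 Arrays were curated from the Consortium for Functional Glycomics database, 3228 in total, and kept only where the protein sequence was available. Binding is expressed as a within-array Z-score. This score was averaged across arrays of the same protein sequence at different concentrations or buffers and across linkers, and negative values can be read as non-binding.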
# [2] = biological target: Gal(b1-2)Gal
# Summary of the method: as §1
# [3] = biological target: Gal(b1-3)Gal
# Summary of the method: as §1
# [4] = biological target: Gal(b1-3)Gal(b1-4)GlcNAc
# Summary of the method: as §1
# [5] = biological target: Gal(b1-3)GalNAc
# Summary of the method: as §1
# [6] = biological target: Gal(b1-3)GalNAc(a1-3)[Fuc(a1-2)]Gal(b1-4)Glc
# Summary of the method: as §1
# [7] = biological target: Gal(b1-3)GalNAc(a1-3)[Fuc(a1-2)]Gal(b1-4)GlcNAc
# Summary of the method: as §1
# [8] = biological target: Gal(b1-3)GalNAc(b1-3)Gal
# Summary of the method: as §1
# [9] = biological target: Gal(b1-3)GalNAc(b1-3)Gal(a1-4)Gal(b1-4)Glc
# Summary of the method: as §1
# [10] = biological target: Gal(b1-3)GalNAc(b1-4)Gal(b1-4)Glc
# Summary of the method: as §1
# [11] = biological target: Gal(b1-3)GalNAc(b1-4)[Neu5Ac(a2-3)]Gal(b1-4)Glc
# Summary of the method: as §1
# [12] = biological target: Gal(b1-3)GlcNAc
# Summary of the method: as §1
# [13] = biological target: Gal(b1-3)GlcNAc(a1-3)Gal(b1-4)GlcNAc
# Summary of the method: as §1
# [14] = biological target: Gal(b1-3)GlcNAc(a1-6)Gal(b1-4)GlcNAc
# Summary of the method: as §1
# [15] = biological target: Gal(b1-3)GlcNAc(b1-2)Man
# Summary of the method: as §1
# [16] = biological target: Gal(b1-3)GlcNAc(b1-2)Man(a1-3)[Gal(b1-3)GlcNAc(b1-2)Man(a1-6)]Man(b1-4)GlcNAc(b1-4)GlcNAc
# Summary of the method: as §1
# [17] = biological target: Gal(b1-3)GlcNAc(b1-2)Man(a1-3)[Gal(b1-3)GlcNAc(b1-2)Man(a1-6)]Man(b1-4)GlcNAc(b1-4)[Fuc(a1-6)]GlcNAc
# Summary of the method: as §1
# [18] = biological target: Gal(b1-3)GlcNAc(b1-2)Man(a1-3)[GlcNAc(b1-4)][Gal(b1-3)GlcNAc(b1-2)Man(a1-6)]Man(b1-4)GlcNAc(b1-4)GlcNAc
# Summary of the method: as §1
# [19] = biological target: Gal(b1-3)GlcNAc(b1-2)[Gal(b1-3)GlcNAc(b1-6)]Man(a1-6)[Gal(b1-3)GlcNAc(b1-2)Man(a1-3)]Man(b1-4)GlcNAc(b1-4)GlcNAc
# Summary of the method: as §1
# [20] = biological target: Gal(b1-3)GlcNAc(b1-3)Gal(b1-3)GlcNAc
# Summary of the method: as §1
# [21] = biological target: Gal(b1-3)GlcNAc(b1-3)Gal(b1-4)Glc
# Summary of the method: as §1
# [22] = biological target: Gal(b1-3)GlcNAc(b1-3)Gal(b1-4)GlcNAc
# Summary of the method: as §1
# [23] = biological target: Gal(b1-3)GlcNAc(b1-3)Gal(b1-4)GlcNAc(b1-2)Man(a1-3)[Gal(b1-3)GlcNAc(b1-3)Gal(b1-4)GlcNAc(b1-2)Man(a1-6)]Man(b1-4)GlcNAc(b1-4)GlcNAc
# Summary of the method: as §1
# [24] = biological target: Gal(b1-3)GlcNAc(b1-3)Gal(b1-4)GlcNAc(b1-2)[Gal(b1-3)GlcNAc(b1-3)Gal(b1-4)GlcNAc(b1-6)]Man(a1-6)[Gal(b1-3)GlcNAc(b1-3)Gal(b1-4)GlcNAc(b1-2)Man(a1-3)]Man(b1-4)GlcNAc(b1-4)[Fuc(a1-6)]GlcNAc
# Summary of the method: as §1
# [25] = biological target: Gal(b1-3)GlcNAc(b1-3)Gal(b1-4)GlcNAc(b1-3)Gal(b1-4)GlcNAc(b1-2)[Gal(b1-3)GlcNAc(b1-3)Gal(b1-4)GlcNAc(b1-3)Gal(b1-4)GlcNAc(b1-6)]Man(a1-6)[Gal(b1-3)GlcNAc(b1-3)Gal(b1-4)GlcNAc(b1-3)Gal(b1-4)GlcNAc(b1-2)Man(a1-3)]Man(b1-4)GlcNAc(b1-4)[Fuc(a1-6)]GlcNAc
# Summary of the method: as §1
# [26] = biological target: Gal(b1-3)GlcNAc(b1-3)Gal(b1-4)GlcNAc(b1-6)[Gal(b1-3)GlcNAc(b1-3)]Gal(b1-4)Glc
# Summary of the method: as §1
# [27] = biological target: Gal(b1-3)GlcNAc(b1-3)Gal(b1-4)[Fuc(a1-3)]GlcNAc
# Summary of the method: as §1
# [28] = biological target: Gal(b1-3)GlcNAc(b1-3)Gal(b1-4)[Fuc(a1-3)]GlcNAc(b1-6)[Gal(b1-3)GlcNAc(b1-3)]Gal(b1-4)Glc
# Summary of the method: as §1
# [29] = biological target: Gal(b1-3)GlcNAc(b1-3)GalNAc
# Summary of the method: as §1
# [30] = biological target: Gal(b1-3)GlcNAc(b1-6)Gal(b1-4)GlcNAc
# Summary of the method: as §1
# [31] = biological target: Gal(b1-3)GlcNAc(b1-6)GalNAc
# Summary of the method: as §1
# [32] = biological target: Gal(b1-3)GlcNAc(b1-6)[Gal(b1-3)]GalNAc
# Summary of the method: as §1
# [33] = biological target: Gal(b1-3)GlcNAc6S
# Summary of the method: as §1
# [34] = biological target: Gal(b1-3)[Fuc(a1-4)]GlcNAc
# Summary of the method: as §1
# [35] = biological target: Gal(b1-3)[Fuc(a1-4)]GlcNAc(b1-2)Man
# Summary of the method: as §1
# [36] = biological target: Gal(b1-3)[Fuc(a1-4)]GlcNAc(b1-2)Man(a1-3)[Gal(b1-3)[Fuc(a1-4)]GlcNAc(b1-2)Man(a1-6)]Man(b1-4)GlcNAc(b1-4)[Fuc(a1-6)]GlcNAc
# Summary of the method: as §1
# [37] = biological target: Gal(b1-3)[Fuc(a1-4)]GlcNAc(b1-3)Gal(b1-3)[Fuc(a1-4)]GlcNAc
# Summary of the method: as §1
# [38] = biological target: Gal(b1-3)[Fuc(a1-4)]GlcNAc(b1-3)Gal(b1-4)[Fuc(a1-3)]GlcNAc
# Summary of the method: as §1
# [39] = biological target: Gal(b1-3)[Fuc(a1-4)]GlcNAc(b1-6)GalNAc
# Summary of the method: as §1
# [40] = biological target: Gal(b1-3)[GlcNAc(b1-6)]GalNAc
# Summary of the method: as §1
# [41] = biological target: Gal(b1-3)[Neu5Ac(a2-6)]GalNAc
# Summary of the method: as §1
# [42] = biological target: Gal(b1-3)[Neu5Ac(a2-6)]GlcNAc(b1-4)Gal(b1-4)Glc
# Summary of the method: as §1
# [43] = biological target: Gal(b1-3)[Neu5Ac(b2-6)]GalNAc
# Summary of the method: as §1
# [44] = biological target: Gal(b1-4)Gal
# Summary of the method: as §1
# [45] = biological target: Gal(b1-4)GalNAc(a1-3)[Fuc(a1-2)]Gal(b1-4)GlcNAc
# Summary of the method: as §1
binder,measurement,setting,value
B1,glycan array binding signal (z-score),[1],0.468
same,glycan array binding signal (z-score),[2],-0.085
same,glycan array binding signal (z-score),[3],0.163
same,glycan array binding signal (z-score),[4],0.402
same,glycan array binding signal (z-score),[5],-0.234
same,glycan array binding signal (z-score),[6],-0.135
same,glycan array binding signal (z-score),[7],0.156
same,glycan array binding signal (z-score),[8],0.272
same,glycan array binding signal (z-score),[9],0.455
same,glycan array binding signal (z-score),[10],1.08
same,glycan array binding signal (z-score),[11],0.156
same,glycan array binding signal (z-score),[12],-0.83
same,glycan array binding signal (z-score),[13],-0.37
same,glycan array binding signal (z-score),[14],-0.138
same,glycan array binding signal (z-score),[15],-0.23
same,glycan array binding signal (z-score),[16],0.237
same,glycan array binding signal (z-score),[17],-0.353
same,glycan array binding signal (z-score),[18],0.034
same,glycan array binding signal (z-score),[19],-0.362
same,glycan array binding signal (z-score),[20],-0.042
same,glycan array binding signal (z-score),[21],-0.845
same,glycan array binding signal (z-score),[22],-0.56
same,glycan array binding signal (z-score),[23],-1.02
same,glycan array binding signal (z-score),[24],0.46
same,glycan array binding signal (z-score),[25],1.23
same,glycan array binding signal (z-score),[26],-0.072
same,glycan array binding signal (z-score),[27],-0.396
same,glycan array binding signal (z-score),[28],-0.438
same,glycan array binding signal (z-score),[29],-0.317
same,glycan array binding signal (z-score),[30],-0.159
same,glycan array binding signal (z-score),[31],-0.579
same,glycan array binding signal (z-score),[32],0.684
same,glycan array binding signal (z-score),[33],0.091
same,glycan array binding signal (z-score),[34],-0.527
same,glycan array binding signal (z-score),[35],0.139
same,glycan array binding signal (z-score),[36],0.293
same,glycan array binding signal (z-score),[37],-0.249
same,glycan array binding signal (z-score),[38],-0.59
same,glycan array binding signal (z-score),[39],1.42
same,glycan array binding signal (z-score),[40],-0.376
same,glycan array binding signal (z-score),[41],-0.119
same,glycan array binding signal (z-score),[42],-0.341
same,glycan array binding signal (z-score),[43],-0.153
same,glycan array binding signal (z-score),[44],-0.452
same,glycan array binding signal (z-score),[45],-1.08

# From the supplement of paper PMC8728848
